Test results taken from the supplement of paper PMC11006884.
The list shows a part of the results, in another mix than the full data.

The chains behind the UniProt entries cited, without tags or fusion partners. Where a name states a change or a piece, a line headed by the entry shows the natural chain unless it says otherwise.
UniProt Q5VT66: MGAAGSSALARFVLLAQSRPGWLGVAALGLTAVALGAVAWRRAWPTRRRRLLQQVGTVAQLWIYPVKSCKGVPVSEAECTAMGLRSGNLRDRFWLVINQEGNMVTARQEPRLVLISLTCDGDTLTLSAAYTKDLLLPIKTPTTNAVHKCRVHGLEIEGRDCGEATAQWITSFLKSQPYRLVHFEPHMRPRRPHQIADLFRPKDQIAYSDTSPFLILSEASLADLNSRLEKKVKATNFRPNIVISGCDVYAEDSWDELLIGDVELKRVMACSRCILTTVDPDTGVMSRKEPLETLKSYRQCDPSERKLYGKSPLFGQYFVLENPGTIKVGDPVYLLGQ
UniProt Q5T200: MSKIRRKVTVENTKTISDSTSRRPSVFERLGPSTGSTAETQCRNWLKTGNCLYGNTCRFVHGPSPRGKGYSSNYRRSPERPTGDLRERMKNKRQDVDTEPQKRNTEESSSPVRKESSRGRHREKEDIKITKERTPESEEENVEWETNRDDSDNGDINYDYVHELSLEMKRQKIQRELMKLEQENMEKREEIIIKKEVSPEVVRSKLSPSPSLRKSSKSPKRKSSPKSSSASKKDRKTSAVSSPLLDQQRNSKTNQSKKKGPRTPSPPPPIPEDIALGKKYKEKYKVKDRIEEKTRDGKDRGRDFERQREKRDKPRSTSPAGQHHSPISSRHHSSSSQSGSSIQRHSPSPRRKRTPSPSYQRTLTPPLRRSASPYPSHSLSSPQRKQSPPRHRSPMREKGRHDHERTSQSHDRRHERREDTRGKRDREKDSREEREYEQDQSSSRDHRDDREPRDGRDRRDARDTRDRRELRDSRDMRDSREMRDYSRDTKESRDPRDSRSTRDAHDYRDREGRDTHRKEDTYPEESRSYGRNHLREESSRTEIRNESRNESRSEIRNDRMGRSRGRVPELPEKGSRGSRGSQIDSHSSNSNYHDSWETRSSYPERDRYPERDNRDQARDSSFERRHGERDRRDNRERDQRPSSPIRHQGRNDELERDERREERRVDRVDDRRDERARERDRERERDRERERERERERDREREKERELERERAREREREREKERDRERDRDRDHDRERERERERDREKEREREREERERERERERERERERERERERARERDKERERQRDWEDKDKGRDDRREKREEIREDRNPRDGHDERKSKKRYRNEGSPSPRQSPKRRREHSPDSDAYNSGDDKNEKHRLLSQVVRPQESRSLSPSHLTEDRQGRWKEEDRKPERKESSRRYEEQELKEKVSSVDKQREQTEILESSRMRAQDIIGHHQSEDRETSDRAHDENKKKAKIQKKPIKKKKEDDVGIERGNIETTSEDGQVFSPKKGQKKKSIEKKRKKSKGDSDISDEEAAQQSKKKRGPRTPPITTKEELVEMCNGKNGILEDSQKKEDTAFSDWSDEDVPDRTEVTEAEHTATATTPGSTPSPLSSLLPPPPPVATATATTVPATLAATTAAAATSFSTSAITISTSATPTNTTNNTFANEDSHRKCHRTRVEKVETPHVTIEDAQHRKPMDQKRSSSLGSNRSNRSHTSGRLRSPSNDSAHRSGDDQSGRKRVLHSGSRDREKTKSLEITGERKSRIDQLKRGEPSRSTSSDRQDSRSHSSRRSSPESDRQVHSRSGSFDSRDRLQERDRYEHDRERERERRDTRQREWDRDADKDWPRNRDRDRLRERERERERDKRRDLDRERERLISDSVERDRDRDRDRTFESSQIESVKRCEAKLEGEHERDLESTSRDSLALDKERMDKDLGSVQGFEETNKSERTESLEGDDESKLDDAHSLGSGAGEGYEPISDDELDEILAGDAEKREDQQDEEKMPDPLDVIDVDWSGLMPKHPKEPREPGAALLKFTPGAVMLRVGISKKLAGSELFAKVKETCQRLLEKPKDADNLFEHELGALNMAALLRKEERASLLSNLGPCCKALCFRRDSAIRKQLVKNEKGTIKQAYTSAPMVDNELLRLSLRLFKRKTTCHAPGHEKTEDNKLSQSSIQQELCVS
UniProt Q5W0B1: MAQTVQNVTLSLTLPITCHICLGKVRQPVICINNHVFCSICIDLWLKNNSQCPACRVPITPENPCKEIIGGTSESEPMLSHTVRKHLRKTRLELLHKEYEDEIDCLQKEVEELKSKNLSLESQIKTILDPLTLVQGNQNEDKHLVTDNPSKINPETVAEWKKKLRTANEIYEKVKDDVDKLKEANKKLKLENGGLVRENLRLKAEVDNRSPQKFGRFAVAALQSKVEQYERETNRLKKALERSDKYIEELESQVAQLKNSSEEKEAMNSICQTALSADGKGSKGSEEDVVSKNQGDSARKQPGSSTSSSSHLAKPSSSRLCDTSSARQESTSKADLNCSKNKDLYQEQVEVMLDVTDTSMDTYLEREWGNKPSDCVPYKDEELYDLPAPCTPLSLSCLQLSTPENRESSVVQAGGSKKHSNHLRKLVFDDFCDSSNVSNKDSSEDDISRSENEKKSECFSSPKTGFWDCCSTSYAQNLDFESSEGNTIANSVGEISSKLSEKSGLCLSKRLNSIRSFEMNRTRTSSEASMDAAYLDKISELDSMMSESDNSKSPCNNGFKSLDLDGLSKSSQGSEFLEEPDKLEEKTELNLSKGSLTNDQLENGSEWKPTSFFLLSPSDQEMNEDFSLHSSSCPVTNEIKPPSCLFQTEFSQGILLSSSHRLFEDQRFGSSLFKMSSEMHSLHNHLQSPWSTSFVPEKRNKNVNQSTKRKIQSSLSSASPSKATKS
UniProt Q6YN16: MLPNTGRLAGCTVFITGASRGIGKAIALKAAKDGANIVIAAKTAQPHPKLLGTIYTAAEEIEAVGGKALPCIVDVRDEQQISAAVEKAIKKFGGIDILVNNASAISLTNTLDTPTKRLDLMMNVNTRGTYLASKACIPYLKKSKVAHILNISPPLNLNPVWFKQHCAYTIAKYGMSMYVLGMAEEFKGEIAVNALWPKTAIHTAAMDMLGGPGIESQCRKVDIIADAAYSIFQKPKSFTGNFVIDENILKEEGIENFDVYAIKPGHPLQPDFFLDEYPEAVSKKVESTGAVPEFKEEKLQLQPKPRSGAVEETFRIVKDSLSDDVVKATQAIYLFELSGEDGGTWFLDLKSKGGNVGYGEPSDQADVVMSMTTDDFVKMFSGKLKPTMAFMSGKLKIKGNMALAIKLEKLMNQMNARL
UniProt Q6ZSZ5: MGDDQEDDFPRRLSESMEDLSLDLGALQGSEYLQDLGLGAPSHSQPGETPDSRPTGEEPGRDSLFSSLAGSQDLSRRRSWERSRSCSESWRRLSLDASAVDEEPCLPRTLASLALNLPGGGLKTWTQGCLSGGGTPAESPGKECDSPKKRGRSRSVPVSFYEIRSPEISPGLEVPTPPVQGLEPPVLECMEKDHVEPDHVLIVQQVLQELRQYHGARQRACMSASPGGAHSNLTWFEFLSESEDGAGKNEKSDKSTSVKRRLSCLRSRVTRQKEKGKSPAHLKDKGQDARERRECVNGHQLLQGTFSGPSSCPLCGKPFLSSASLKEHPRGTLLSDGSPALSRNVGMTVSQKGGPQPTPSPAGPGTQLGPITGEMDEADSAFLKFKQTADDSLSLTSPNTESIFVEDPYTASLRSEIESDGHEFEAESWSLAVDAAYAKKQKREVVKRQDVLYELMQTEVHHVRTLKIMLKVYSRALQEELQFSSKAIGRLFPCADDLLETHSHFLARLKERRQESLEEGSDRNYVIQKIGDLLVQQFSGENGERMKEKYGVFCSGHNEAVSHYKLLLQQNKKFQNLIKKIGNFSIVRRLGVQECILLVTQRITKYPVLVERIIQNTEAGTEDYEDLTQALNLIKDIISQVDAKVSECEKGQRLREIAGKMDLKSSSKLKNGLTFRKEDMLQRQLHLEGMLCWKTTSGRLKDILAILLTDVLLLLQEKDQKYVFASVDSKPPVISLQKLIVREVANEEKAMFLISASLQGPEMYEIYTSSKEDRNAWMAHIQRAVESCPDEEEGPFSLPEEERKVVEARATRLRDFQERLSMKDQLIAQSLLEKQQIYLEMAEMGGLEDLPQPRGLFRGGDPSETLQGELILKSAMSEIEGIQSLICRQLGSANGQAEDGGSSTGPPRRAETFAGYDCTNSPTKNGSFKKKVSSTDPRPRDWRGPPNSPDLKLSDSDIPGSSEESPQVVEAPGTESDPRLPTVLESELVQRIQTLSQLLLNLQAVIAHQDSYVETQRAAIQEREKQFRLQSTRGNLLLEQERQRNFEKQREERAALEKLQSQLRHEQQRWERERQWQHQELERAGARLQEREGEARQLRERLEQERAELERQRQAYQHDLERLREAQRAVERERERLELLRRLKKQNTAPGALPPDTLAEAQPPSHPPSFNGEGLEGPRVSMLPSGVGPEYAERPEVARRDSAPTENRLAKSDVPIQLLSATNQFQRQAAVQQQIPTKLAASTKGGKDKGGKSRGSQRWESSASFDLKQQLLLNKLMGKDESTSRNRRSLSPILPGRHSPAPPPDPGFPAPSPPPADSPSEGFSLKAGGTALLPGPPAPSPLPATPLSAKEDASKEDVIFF
UniProt Q6ZNW5: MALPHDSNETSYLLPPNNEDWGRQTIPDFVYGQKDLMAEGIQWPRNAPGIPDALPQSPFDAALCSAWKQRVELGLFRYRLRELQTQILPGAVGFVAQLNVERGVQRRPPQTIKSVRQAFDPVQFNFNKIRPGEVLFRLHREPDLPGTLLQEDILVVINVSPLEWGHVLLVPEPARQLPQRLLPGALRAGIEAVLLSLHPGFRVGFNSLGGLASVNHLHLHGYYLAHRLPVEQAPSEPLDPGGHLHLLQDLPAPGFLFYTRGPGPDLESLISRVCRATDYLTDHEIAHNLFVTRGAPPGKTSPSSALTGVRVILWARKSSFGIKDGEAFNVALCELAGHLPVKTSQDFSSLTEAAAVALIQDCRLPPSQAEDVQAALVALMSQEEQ
UniProt Q6IBS0: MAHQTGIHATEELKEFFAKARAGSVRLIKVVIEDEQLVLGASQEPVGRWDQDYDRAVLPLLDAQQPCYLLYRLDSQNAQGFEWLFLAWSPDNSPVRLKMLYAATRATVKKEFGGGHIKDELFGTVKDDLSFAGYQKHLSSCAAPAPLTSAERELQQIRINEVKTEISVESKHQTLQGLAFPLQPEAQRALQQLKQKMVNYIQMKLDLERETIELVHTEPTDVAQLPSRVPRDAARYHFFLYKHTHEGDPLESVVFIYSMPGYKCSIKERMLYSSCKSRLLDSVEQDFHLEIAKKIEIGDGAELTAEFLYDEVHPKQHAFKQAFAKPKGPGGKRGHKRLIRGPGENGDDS
UniProt Q6PCB5: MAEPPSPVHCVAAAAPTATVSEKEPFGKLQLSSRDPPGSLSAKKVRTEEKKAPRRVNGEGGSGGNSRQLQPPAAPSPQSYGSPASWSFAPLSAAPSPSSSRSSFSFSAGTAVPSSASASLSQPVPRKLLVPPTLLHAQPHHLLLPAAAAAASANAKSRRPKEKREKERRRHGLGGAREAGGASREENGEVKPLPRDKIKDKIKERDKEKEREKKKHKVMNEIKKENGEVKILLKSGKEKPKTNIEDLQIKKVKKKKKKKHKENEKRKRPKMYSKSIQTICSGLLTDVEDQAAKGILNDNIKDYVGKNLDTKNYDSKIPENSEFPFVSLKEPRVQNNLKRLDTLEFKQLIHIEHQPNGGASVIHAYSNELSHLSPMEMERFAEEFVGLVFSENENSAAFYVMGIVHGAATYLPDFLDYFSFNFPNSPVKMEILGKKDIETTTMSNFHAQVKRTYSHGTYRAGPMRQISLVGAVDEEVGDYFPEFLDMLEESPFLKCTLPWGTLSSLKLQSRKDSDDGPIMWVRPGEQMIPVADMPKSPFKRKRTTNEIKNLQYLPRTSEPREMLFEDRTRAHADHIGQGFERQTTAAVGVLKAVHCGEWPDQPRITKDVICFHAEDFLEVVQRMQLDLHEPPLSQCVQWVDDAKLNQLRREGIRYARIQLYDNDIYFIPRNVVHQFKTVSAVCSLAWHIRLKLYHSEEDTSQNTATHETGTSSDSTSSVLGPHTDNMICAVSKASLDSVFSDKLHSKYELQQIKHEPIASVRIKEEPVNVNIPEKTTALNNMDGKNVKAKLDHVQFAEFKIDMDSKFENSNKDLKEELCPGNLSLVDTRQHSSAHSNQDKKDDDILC
UniProt Q6P6C2: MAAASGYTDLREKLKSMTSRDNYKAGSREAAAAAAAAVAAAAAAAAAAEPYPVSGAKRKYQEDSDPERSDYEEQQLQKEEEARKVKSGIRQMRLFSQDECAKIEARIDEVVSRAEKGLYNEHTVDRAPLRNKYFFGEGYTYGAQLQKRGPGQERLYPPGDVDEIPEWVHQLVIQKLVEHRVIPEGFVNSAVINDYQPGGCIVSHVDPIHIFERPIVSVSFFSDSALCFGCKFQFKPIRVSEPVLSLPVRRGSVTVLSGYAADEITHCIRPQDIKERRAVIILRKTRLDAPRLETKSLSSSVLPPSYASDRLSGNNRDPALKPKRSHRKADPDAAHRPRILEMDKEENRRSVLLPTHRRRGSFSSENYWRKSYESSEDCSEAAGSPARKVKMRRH

compound: COC(=O)C#Cc1ccccc1 [methyl 3-phenylpropiolate]; test: log2 ratio of iodoacetamide-alkyne labeling of the cysteine site, DMSO over compound (competition); higher = stronger covalent engagement of the cysteine by the compound, active = 1 or more; settings: 500 µM; treatment time 1 h; system: HEK293T cell lysate
Method in brief: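 The log2 competition ratio per cysteine is defined as mean reporter intensity in control channels over mean reporter intensity in compound channels. Lysate from HEK293T cells (2 mg/mL) received electrophile (500 µM) or vehicle for 1 h at ambient temperature, followed by iodoacetamide alkyne for 1 h. Samples were clicked to sCIP-TMT reagents, pooled, trypsin-digested overnight at 37 °C, streptavidin-enriched, acid-eluted and run on Orbitrap Eclipse LC-MS/MS with FAIMS, with quantification in FragPipe. Three replicates with duplicate channels were used, and any cysteine quantified in only one replicate was excluded.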

| Target | log2 ratio of iodoacetamide-alkyne labeling |
| --- | --- |
| UniProt Q5TEU4_C199 | inactive: 0.272 |
| TJAP1 C172 (UniProt Q5JTD0) | inactive: 0.251 |
| AARS2 C596 (UniProt Q5JTZ9) | inactive: -0.0384 |
| SFXN4 C70 (UniProt Q6P4A7) | inactive: 0.215 |
| ARHGAP17 C53 (UniProt Q68EM7) | inactive: 0.283 |
| ZC3H14 C712 (UniProt Q6PJT7) | inactive: -0.0936 |
| UBR4 C1450 (UniProt Q5T4S7) | inactive: 0.138 |
| CAMSAP1 C1379 (UniProt Q5T5Y3) | active: 1.45 |
| NADSYN1 C309 (UniProt Q6IA69) | inactive: 0.107 |
| MTHFD1L C961 (UniProt Q6UB35) | inactive: 0.83 |
| WDR73 C352 (UniProt Q6P4I2) | inactive: -0.0916 |
| MARC1 C273 (UniProt Q5VT66) | inactive: 0.102 |
| ZC3H13 C1666 (UniProt Q5T200) | inactive: 0.206 |
| NT5DC1 C179 (UniProt Q5TFE4) | inactive: 0.191 |
| CWF19L1 C176 (UniProt Q69YN2) | inactive: -0.136 |
| UniProt Q5W0B1_C321 | inactive: 0.63 |
| CTR9 C511 (UniProt Q6PD62) | inactive: 0.0657 |
| CDKAL1 C6 (UniProt Q5VV42) | inactive: -0.0457 |
| HSDL2 C71 (UniProt Q6YN16) | inactive: 0.188 |

Reprinted at random: 2 records from the list

| Target | log2 ratio of iodoacetamide-alkyne labeling |
| --- | --- |
| UniProt Q5W0B1_C321 | inactive: 0.63 |
| NT5DC1 C179 (UniProt Q5TFE4) | inactive: 0.191 |

Later entries

| Target | log2 ratio of iodoacetamide-alkyne labeling |
| --- | --- |
| HEATR6 C360 (UniProt Q6AI08) | inactive: 0.657 |
| UniProt Q6PJG6_C228 | active: 1.06 |
| UniProt Q6ZSZ5_C699 | inactive: 0.239 |
| NHSL1 C729 (UniProt Q5SYE7) | inactive: 0.695 |
| FIP1L1 C216 (UniProt Q6UN15) | inactive: 0.00352 |
| ATPAF1 C121 (UniProt Q5TC12) | inactive: 0.192 |
| HSDL2 C11 (UniProt Q6YN16) | inactive: 0.0294 |
| RIF1 C1692 (UniProt Q5UIP0) | inactive: 0.681 |
| CEP128 C915 (UniProt Q6ZU80) | inactive: 0.335 |
| UniProt Q6ZNW5_C64 | inactive: 0.0733 |
| TWF2 C141 (UniProt Q6IBS0) | inactive: 0.0464 |
| ZNF318 C242 (UniProt Q5VUA4) | inactive: 0.289 |
| ATPAF1 C321 (UniProt Q5TC12) | inactive: 0.464 |
| RSBN1L C818 (UniProt Q6PCB5) | inactive: 0.453 |
| TET2 C332 (UniProt Q6N021) | inactive: 0.594 |
| FAM199X C235 (UniProt Q6PEV8) | inactive: 0.0217 |
| DHRS13 C268 (UniProt Q6UX07) | inactive: 0.106 |
| ALKBH5 C267 (UniProt Q6P6C2) | inactive: 0.444 |
